Some of the results follow. Potency and affinity values are given separately.
system: Pseudomonas aeruginosa; conditions: Concentration 20 uM; ASSAY_TEST Inhibition of Bacterial Growth; detection method Absorption (OD600); MEDIA CAMHB; plate type 384well; NBS; CORNING #3640; time 18 hr

Structure (SMILES)	Inhibition
CC(=O)OCC1OC(COC(C)=O)(c2ccc(C)cc2)C(OC(C)=O)C1OC(C)=O (stereo unspecified)	23.48%
C#CC1(N2CCCCC2)CCCCC1	17.52%
CCN(c1ccccc1)c1nc(Cl)nc2c1cnn2C	6.67%
Cc1cc(=O)[nH]c(N)n1	-2.41%
CNC(=O)c1nn(C)c(=O)[nH]c1=O	26.23%
CC(C)COC(=O)NC1c2ccccc2Oc2ccccc21	6.4%
CCC1=C(c2ccc(OC)cc2)CCC(C(=O)O)C1C (stereo unspecified)	-11.41%
CCc1cccc2[nH]c3cc([N+](=O)[O-])ccc3c12	-5.38%
Nc1ncnc2c1ncn2C1OC(CO)C(O)C1N (stereo unspecified)	4.31%
Oc1c(Cl)cc(Cl)cc1C1Nc2ccccc2-n2cccc21 (stereo unspecified)	12.23%
CCC(C)(C)c1ccc(Oc2cccc(C(=O)O)c2)cc1	-11.05%
Cl/N=C1/C=CC=C/C1=N/Cl	-1.05%
CC(C)N(C(=O)c1cccc([N+](=O)[O-])c1)C(C)C	-6.21%
C[C@H](CCC(=O)O)[C@H]1CC[C@@]2(C)[C@@H]3C(=O)C[C@H]4C(C)(C)[C@@H](O)CC[C@]4(C)[C@H]3C(=O)C[C@]12C	-11.48%
O=C1c2ccccc2C(=O)c2c(Nc3ccc(CCO)cc3)ccc(O)c21	27.65%
CCCCNCC1CCCO1 (stereo unspecified)	24.27%
Cc1nnc(Cc2ccccc2)c2[nH]nc(C)c12	1.1%
Oc1ccccc1-c1nnco1 [FENADIAZOLE]	12.87%
CS(=O)(=O)O.OC(c1cc(C(F)(F)F)nc2c(Cl)cc(Cl)cc12)C1CCCCN1 (stereo unspecified)	29.15%
c1ccc(-n2nnnc2-c2cccc3ccccc23)cc1	-7.64%
Oc1ccc(Cc2ccccc2Cl)c(O)c1	12.49%
Oc1ccc2c(ccc3[nH]cnc32)c1	26.82%
O=C(O)c1cc(N2C(=O)C=CC2=O)cc(N2C(=O)C=CC2=O)c1	5.71%
CCOc1ccc(/C=C2\CCc3ccccc3C2=O)cc1	-6.14%

Structure (SMILES)	Inhibition
Cc1csc(/N=N/c2ccc(N(C)C)cc2)[n+]1[O-]	12.68%
Cc1nnsc1C(=O)NCc1c(F)cccc1Cl	-8.15%
CN(/N=N/c1[nH]cnc1C(=O)NN)C1CCCCC1	-5.81%
NCC(=O)Nc1ccc(Cl)cc1C(=O)c1ccc[nH]1	8.94%
c1ccc2c(c1)nnn2-c1ccncc1	-19.2%
CC(=O)Nc1ccc2cc3ccc(NC(C)=O)cc3nc2c1	10.98%
O=C(O)c1ccccc1C(=O)Nc1cccc([N+](=O)[O-])c1	0.82%
Nc1ccccc1Sc1cc(Cl)nnc1Cl	14.25%
CCc1nc(NC(C)(C)C)c2cnn(-c3ccccc3)c2n1	-1.88%
O=c1[nH]c(=S)c2nc(S)n(-c3ccccc3)c2[nH]1	7.51%
Nc1[nH]nc2nc(-c3ccccc3)nc(O)c12	1.53%
O=C(CC1C=Cc2ccccc2N1C(=O)c1ccccc1)c1ccccc1 (stereo unspecified)	25.39%
c1ccc(-c2nnc3oc(-c4cccs4)nn23)cc1	13.73%
CCOP(=O)(OCC)/C(C#N)=C/c1ccc([N+](=O)[O-])cc1	22.05%
Clc1c(Cl)c(Cl)c2[nH]nnc2c1Cl	3.68%
COc1cc(/N=N/c2cccc(S(N)(=O)=O)c2)c2ccccc2c1N	26.1%
COc1cc(C(=O)C(=O)c2cc(OC)c(O)c(OC)c2)cc(OC)c1O	9%
Cc1cc(O)c(C(C)C)cc1NC(=O)Nc1cccc2ccccc12	7.81%
O=P(O)(O)c1cc(-c2ccccc2)oc1-c1ccccc1	6.31%
Cc1nc(NCc2ccccc2)c2cc[nH]c2n1 [ROLODINE]	4.39%
NC(=O)c1ccccc1NC(=O)c1ccccc1Cl	10.71%
COc1ccc(Nc2cc(C)nc(N)n2)cc1	-8.13%
COc1ccc2c3c([nH]c2c1)[C@H]1C[C@H]2[C@H](C[C@@H](O)[C@H](OC)[C@H]2C(=O)O)CN1CC3	8.44%
CNc1ncnc2c1cnn2C1CCCCO1 (stereo unspecified)	17.87%

Structure (SMILES)	Inhibition
Cc1cc2c(cc1C)NC1=C(O)C(c3cccc(O)c3)OC1=N2 (stereo unspecified)	4.58%
COc1ccc(C(=O)Oc2cccnc2O)cc1	-7.26%
Oc1ccc(/C=C\c2cnccn2)cc1	25.8%
COc1cc2c(NCCCCCO)ncnc2c(OC)c1OC	24.66%
O=[N+]([O-])c1cc(-c2cccnc2)[nH]n1	10.61%
CC1(C)N=C(N)N=C(N)N1c1cccc(CN)c1.CCS(=O)(=O)O	19.75%
Cc1nnc(-n2cccc2)s1	2.93%
Cn1c(N)c(/N=N/c2ccc(S(N)(=O)=O)cc2)c(=O)n(C)c1=O	12.52%
NC1=NC(c2ccc(Cl)cc2)N(c2ccc(S(N)(=O)=O)cc2)C(N)=N1 (stereo unspecified)	15.92%
CSc1nnc(-c2cccs2)[nH]1	14.85%
C#CCSc1nnnn1-c1ccc(Br)c(C)c1	24.75%
Cc1ccn(C)c(=N)c1	15.16%
Nc1n[nH]c(Nc2ccccc2)n1	11.15%
O=C(O)C1C2OC3C(OC(=O)C31)C2Br (stereo unspecified)	8.37%
Clc1ccc(/C=C/c2nc(Cl)c(-c3ccc(Cl)cc3)c(Cl)n2)cc1	27.09%
COc1ccc2c(n1)Sc1nc3ccccc3nc1N2	4.87%
Cc1nccnc1Sc1ccccc1	-0.18%
[O-][n+]1ccc(CC(O)(C(F)(F)F)C(F)(F)F)cc1	-7.4%
Sc1nc2ccccc2n2cccc12	-3.39%
NNC(=O)CNC(=O)Nc1nnc(S)s1	-0.41%
CN(C)S(=O)(=O)c1ccc(N)c([N+](=O)[O-])c1	3.26%
CCC(C)N=C(S)Nc1ccccc1 (stereo unspecified)	5.43%
S=C1SCN(CCc2ccccc2)CN1CCc1ccccc1	10.02%
O=C(Nc1ccc(Cl)cc1)c1cc2c(cc1O)[nH]c1ccccc12	-10.65%

Structure (SMILES)	Inhibition
CCOc1ccc2sc(NS(=O)(=O)c3ccc(N)cc3)nc2c1	12.86%
O=C1OCC/C1=C\NCCCCCCCCN/C=C1\CCOC1=O	20.27%
CCCCOc1nc2c(c(=O)n(C)c(=O)n2C)n1C	7%
NCc1c(O)ccc2ccccc12	-10.61%
O=c1oc2c(cc1O)oc(=O)c1cc(O)c(O)c(O)c12	3.75%
Cc1nc(O)c2c3c(sc2n1)CCCC3	7.72%
CCNc1nn2ccccc2c1/C=C(/C#N)C(=O)OCC	15.35%
COc1ccc(C2=NC(=O)NC2c2ccc(OC)cc2)cc1 (stereo unspecified)	2.31%
c1cc2c3c(cccc3c1)NC1(CCC3(CC1)Nc1cccc4cccc(c14)N3)N2	33.82%
O=C(Nc1cccc([N+](=O)[O-])c1)c1ccc2ccccc2c1O	13.88%
Cc1cc2cc3n(c2nn1)N=C(Cl)CC3	8.98%
Cc1cc(=O)[nH]/c(=N/N=C2/CCCCC2C)[nH]1 (stereo unspecified)	14.92%
c1ccc(-n2c3ccccc3c3ccccc32)cc1	11.31%
Oc1ccc(N/C(S)=N/c2ccccc2)cc1	-9.32%
CC(C)(C)c1ccc(OCC(=O)O)cc1	13.64%
CC12CCC(C(NC(=S)NN)C1=O)C2(C)C (stereo unspecified)	8.97%
Cc1cnc2c(N)cc(C)c(C)c2c1	9.68%
O=C(Nc1cccc2ccccc12)c1cc2c(cc1Br)OCO2	31.1%
Cn1ncc2c(Nc3ccccc3Cl)nc(Cl)nc21	5.69%
Cc1nc2ccccc2nc1NS(=O)(=O)c1ccc(N)cc1	-3.19%
O=C1c2cc([N+](=O)[O-])ccc2-c2cc(Br)c(NC(=NO)C(F)(F)F)cc21	29.81%
O=C(Nc1cccc([N+](=O)[O-])c1)c1cccc(C(=O)Nc2cccc([N+](=O)[O-])c2)c1	-10.43%
CCC1(CC)C(=O)NC(=S)N=C1N	23.58%
N#Cc1n[nH]c2nc[nH]c(=O)c12	8.85%

5 compounds out of the list, ordered by number of heavy atoms, smallest number first.
Structure (SMILES)	Inhibition
CCCCNCC1CCCO1 (stereo unspecified)	24.27%
[O-][n+]1ccc(CC(O)(C(F)(F)F)C(F)(F)F)cc1	-7.4%
COc1ccc2c(n1)Sc1nc3ccccc3nc1N2	4.87%
Oc1c(Cl)cc(Cl)cc1C1Nc2ccccc2-n2cccc21 (stereo unspecified)	12.23%
O=C(Nc1cccc([N+](=O)[O-])c1)c1cccc(C(=O)Nc2cccc([N+](=O)[O-])c2)c1	-10.43%

More compounds follow.

Structure (SMILES)	Inhibition
Nc1nc(N)c(/C=N/c2ccc(Br)cc2)c(Nc2ccc(Br)cc2)n1	10.52%
[O-][n+]1nc2ccccc2c2ccccc21	-12.86%
C=CCOc1ccc(S(C)(=O)=O)cc1	9.23%
C(COC1CC2CC1C1C2CC2OC21)OC1CC2CC1C1C2CC2OC21 (stereo unspecified)	24.67%
CC(=O)NCCCOc1ccc([N+](=O)[O-])cc1Cl	11.7%
CC1=CC(C)(C(Cl)(Cl)Cl)C(C)=C/C1=N/O (stereo unspecified)	18.35%
O=C(O)c1ccc(N2CCCCC2)cc1O	11.6%
Oc1ccc(-c2nc3ccccc3s2)c(O)c1	3.79%
c1ccc(-c2cn3ccccc3n2)cc1	24.11%
CC(=O)Nc1ccc(S(=O)(=O)N/N=c2/sc3ccccc3n2C)cc1N	23.99%
Sc1nccn1-c1ccccc1Cl	-6.55%
c1ccc2cc(OCCOCCOc3ccc4ccccc4c3)ccc2c1	22.77%
c1ccc(CSc2nc3c[nH]cnc-3n2)cc1	7.8%
O=C1c2ccccc2C(=O)N1c1nc[nH]n1	17.58%
COC(=O)C1CC(O)C(O)C(O)C1 (stereo unspecified)	21.21%
O=C(Nc1ccccc1)Nc1ccccn1	6.85%
c1ccc(Sc2ncnc3ccccc23)cc1	16.03%
NC(=O)c1ccc(Cl)c2ccccc12	15.72%
CCOc1ccc(NC(=O)C2CCCN(C)C2)cc1 (stereo unspecified)	-1.96%
CCOC(=O)C(=O)Cc1nc2ccccc2s1	14.64%

From ChEMBL document CHEMBL4296182, “CO-ADD screening of NIH NCI Diversity Set V”
